The results in this text go back to article PMC8497054.

These are yes or no findings as the source states them, for the method shown. For some assays here: Binding can be weak; no strength is given. Tags and fused reporters may be left off the sequences shown.

Experiment [1] has as its target TOC159 M-domain (pGBKT7-TOC159M, BD fusion) (Arabidopsis thaliana). The experiment can be described thus: two-hybrid; TOC159G or TOC159M as BD baits (pGBKT7), SUMO1, SUMO2, SUMO3 as AD preys (pGADT7), yeast strain Y2H GOLD; growth on SD -Leu -Trp and SD -Leu -Trp -His.
For experiment [2], the target named is TOC159 G-domain (pGBKT7-TOC159G, BD fusion) (Arabidopsis thaliana). The description is as above.

B1: SUMO3 (pGADT7-SUMO3, AD fusion) (protein, UniProt Q9FLP5 1-111)
chain: MSNPQDDKPIDQEQEAHVILKVKSQDGDEVLFKNKKSAPLKKLMYVYCDRRGLKLDAFAFIFNGARIGGLETPDELDMEDGDVIDACRAMSGGLRANQRQWSYMLFDHNGL
For the molecule B1, the results for the binding result in experiment [1] and in experiment [2] were “no binding” and “binds”, respectively.
